# Assay results reported in paper doi:10.1101/2023.06.21.546019.
# The chains behind the UniProt entries cited, without tags or fusion partners.
# UniProt P11499: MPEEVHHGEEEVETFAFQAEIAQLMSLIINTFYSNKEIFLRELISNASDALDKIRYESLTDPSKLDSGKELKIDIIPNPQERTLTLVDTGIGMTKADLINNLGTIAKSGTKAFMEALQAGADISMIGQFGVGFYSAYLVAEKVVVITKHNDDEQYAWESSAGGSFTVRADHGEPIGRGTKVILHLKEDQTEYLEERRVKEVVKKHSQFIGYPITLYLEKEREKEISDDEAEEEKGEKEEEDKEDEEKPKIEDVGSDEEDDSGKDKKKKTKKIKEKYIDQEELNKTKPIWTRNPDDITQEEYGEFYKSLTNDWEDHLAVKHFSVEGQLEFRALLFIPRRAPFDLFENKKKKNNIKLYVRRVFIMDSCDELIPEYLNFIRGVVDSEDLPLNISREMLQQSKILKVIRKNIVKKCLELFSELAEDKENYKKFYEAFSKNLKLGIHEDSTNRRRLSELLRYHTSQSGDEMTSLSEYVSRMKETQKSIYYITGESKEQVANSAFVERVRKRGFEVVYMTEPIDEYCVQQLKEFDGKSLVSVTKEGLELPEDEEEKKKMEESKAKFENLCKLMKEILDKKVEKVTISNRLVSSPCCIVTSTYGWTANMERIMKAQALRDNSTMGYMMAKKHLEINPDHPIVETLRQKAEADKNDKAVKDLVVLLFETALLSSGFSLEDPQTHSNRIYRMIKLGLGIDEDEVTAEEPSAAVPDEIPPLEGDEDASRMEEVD
# UniProt P42227: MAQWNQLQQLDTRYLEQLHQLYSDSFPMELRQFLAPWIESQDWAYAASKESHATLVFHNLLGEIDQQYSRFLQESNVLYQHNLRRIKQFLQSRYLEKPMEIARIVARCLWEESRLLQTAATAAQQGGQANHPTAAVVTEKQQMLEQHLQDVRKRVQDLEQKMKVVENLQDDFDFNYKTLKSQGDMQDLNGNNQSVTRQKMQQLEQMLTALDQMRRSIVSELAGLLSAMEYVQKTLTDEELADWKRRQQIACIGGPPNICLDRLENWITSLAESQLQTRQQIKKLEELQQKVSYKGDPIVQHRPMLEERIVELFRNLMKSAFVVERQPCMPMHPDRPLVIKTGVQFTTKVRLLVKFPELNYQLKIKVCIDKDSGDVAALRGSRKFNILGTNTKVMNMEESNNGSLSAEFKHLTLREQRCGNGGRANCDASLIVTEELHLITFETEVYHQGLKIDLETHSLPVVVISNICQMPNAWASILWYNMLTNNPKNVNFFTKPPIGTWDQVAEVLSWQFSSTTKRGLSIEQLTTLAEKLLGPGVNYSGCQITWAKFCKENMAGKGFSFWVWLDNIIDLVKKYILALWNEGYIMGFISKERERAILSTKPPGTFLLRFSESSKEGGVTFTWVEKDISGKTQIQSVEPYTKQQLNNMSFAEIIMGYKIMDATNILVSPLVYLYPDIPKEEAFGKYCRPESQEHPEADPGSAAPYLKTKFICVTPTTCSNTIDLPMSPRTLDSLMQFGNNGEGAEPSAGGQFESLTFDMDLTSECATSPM
# No constants are given. Whether binding was seen depends on the method and setting. Binding seen in cells or lysates may run through a third protein. Some binding calls cover weakened binding; strength is not graded here.
# Target: HSP90ab1 (heat shock protein 90 alpha, class B, member 1) (mouse (endogenous in primary cardiomyocytes)) (UniProt P11499)
# Assay: co-IP
substance,measurement,value
p-STAT3 (phosphorylated signal transducer and activator of transcription 3) (from UniProt P42227 1-770),binding,binds
